Experimental data published in patent US20240101667A1, “METHODS FOR IDENTIFYING LILRB-BLOCKING ANTIBODIES” (THE BOARD OF REGENTS OF THE UNIVERSITY OF TEXAS SYSTEM, priority 2020, published 2024).
No constants are given. Whether binding was seen depends on the method and setting. Binding seen in cells or lysates may run through a third protein. Some entries that bind do so weakly or less than the wild type. Where a sequence is shown, tags or fusion partners need not be part of it.

Protein sequences, listed by entry. Tags and fused reporters are not part of them. Residues count along the entry.
UniProt O75022, residues 24-631: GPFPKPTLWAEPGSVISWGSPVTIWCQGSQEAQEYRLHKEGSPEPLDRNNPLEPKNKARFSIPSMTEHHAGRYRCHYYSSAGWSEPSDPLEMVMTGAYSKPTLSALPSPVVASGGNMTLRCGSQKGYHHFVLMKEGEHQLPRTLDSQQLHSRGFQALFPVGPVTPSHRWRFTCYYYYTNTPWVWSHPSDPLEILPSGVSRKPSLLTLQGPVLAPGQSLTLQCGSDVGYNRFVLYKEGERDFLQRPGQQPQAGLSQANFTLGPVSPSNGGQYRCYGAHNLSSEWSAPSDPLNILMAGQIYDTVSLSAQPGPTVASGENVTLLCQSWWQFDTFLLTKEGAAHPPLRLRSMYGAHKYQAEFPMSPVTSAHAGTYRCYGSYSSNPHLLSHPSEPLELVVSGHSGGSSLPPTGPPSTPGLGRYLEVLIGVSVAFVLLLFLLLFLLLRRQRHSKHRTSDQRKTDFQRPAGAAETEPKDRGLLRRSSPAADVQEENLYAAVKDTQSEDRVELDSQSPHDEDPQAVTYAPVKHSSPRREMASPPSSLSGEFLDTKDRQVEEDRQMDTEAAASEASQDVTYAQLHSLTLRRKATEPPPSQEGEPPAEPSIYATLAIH

Biological target: LILRB3 (leukocyte immunoglobulin-like receptor subfamily B member 3), full length, on cells (human) (UniProt O75022)
Assay: co-immunoprecipitation with human anti-LILRB3 antibody from primary M5 AML cell lysate

- binding: binds
B1: TRAF2 (endogenous or expressed without a stated tag) (protein, human, UniProt Q12933 2-501, looked up)
chain: AAASVTPPGSLELLQPGFSKTLLGTKLEAKYLCSACRNVLRRPFQAQCGHRYCSFCLASILSSGPQNCAACVHEGIYEEGISILESSSAFPDNAARREVESLPAVCPSDGCTWKGTLKEYESCHEGRCPLMLTECPACKGLVRLGEKERHLEHECPERSLSCRHCRAPCCGADVKAHHEVCPKFPLTCDGCGKKKIPREKFQDHVKTCGKCRVPCRFHAIGCLETVEGEKQQEHEVQWLREHLAMLLSSVLEAKPLLGDQSHAGSELLQRCESLEKKTATFENIVCVLNREVERVAMTAEACSRQHRLDQDKIEALSSKVQQLERSIGLKDLAMADLEQKVLEMEASTYDGVFIWKISDFARKRQEAVAGRIPAIFSPAFYTSRYGYKMCLRIYLNGDGTGRGTHLSLFFVVMKGPNDALLRWPFNQKVTLMLLDQNNREHVIDAFRPDVTSSSFQRPVNDMNIASGCPLFCPVSKMEAKNSYVRDDAIFIKAIVDLTGL
